Among the data in PMC6639382, “Structural mechanism of synergistic activation of Aurora kinase B/C by phosphorylated INCENP” (Nature Communications, 2019) are binding values, retold here.

Amino acid sequences for entries named in this document (tags omitted). A change or cut given only in a name is not applied to a line headed by its entry. Chains listed by the source or under a name are the forms on record and can include a tag or linker. Residues count along the entry.
Aurora kinase B kinase domain (truncation not stated), phosphorylated (Q96GD4, form named): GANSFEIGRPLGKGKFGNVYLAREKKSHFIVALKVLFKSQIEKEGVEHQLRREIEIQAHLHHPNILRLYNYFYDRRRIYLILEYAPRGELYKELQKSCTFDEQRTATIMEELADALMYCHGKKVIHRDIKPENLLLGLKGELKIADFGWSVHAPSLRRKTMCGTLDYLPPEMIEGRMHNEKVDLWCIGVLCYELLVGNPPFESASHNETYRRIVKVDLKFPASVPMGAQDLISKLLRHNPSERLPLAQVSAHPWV
INCENP IN-box (residues 835–903) S893A (Q9NQS7-1, form named): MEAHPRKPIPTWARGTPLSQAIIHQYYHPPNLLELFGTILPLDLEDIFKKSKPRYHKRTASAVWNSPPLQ
INCENP IN-box (residues 835–903) W897A (Q9NQS7-1, form named): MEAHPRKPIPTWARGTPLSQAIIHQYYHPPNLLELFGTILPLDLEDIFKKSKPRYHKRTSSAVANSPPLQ
INCENP IN-box (residues 835–903) S894A (Q9NQS7-1, form named): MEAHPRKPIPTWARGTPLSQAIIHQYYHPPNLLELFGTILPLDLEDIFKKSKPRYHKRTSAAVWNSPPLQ

This assay has as its target Aurora kinase B kinase domain (truncation not stated), phosphorylated (human) (UniProt Q96GD4). The assay can be described thus: co-expression and co-purification; bi-cistronic co-expression in E. coli; Ni-Sepharose by the His6 tag of the Aurora kinase (INCENP untagged), TEV, second Ni-Sepharose, S75 gel filtration in 20 mM HEPES pH 7.5, 500 mM NaCl, 5% glycerol, 0.5 mM TCEP; identities confirmed by ESI-MS.

No constants are given. Whether binding was seen depends on the method and setting. Some results given as binding are weak or reduced against the parent protein; the word gives no strength.

As for “INCENP IN-box (residues 835–903) S893A (from UniProt Q9NQS7-1 835-903) (domain or fragment)”, the binding entry was “binds”. For “INCENP IN-box (residues 835–903) W897A (from UniProt Q9NQS7-1 835-903) (domain or fragment)”, the binding result is given as “binds”.

Take “INCENP IN-box (residues 835–903) S894A (from UniProt Q9NQS7-1 835-903) (domain or fragment)”: the binding entry was “binds”.
